One molecule from patent US20190367613A1 (JOUNCE THERAPEUTICS, published 2019) can be followed below.

In this test the target is T1, Mouse (Mus musculus) ICOS (mouse) (UniProt Q9WVS0).
T1 sequence: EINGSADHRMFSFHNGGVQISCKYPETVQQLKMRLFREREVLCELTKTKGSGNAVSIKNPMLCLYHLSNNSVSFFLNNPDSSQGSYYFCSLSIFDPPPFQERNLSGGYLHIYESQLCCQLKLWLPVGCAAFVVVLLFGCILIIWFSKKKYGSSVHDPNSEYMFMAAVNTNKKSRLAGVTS
As to the kind of experiment: flow cytometry on mouse whole-blood CD4+ T cells stained with JTX-2011 DyLight650. On the technique in general: In flow cytometry, cells or beads pass a laser one at a time.

Results are given in words; binding and its absence hold for the method and conditions named. Some results given as binding are weak or reduced against the parent protein; the word gives no strength.

B1: JTX-2011 (antibody, V domains shown)
VH: EVQLVESGGGLVQPGGSLRLSCAASGFTFSDYWMDWVRQAPGKGLVWVSNIDEDGSITEYSPFVKGRFTISRDNAKNTLYLQMNSLRAEDTAVYYCTRWGRFGFDSWGQGTLVTVSS
VL: DIVMTQSPDSLAVSLGERATINCKSSQSLLSGSFNYLTWYQQKPGQPPKLLIFYASTRHTGVPDRFSGSGSGTDFTLTISSLQAEDVAVYYCHHHYNAPPTFGPGTKVDIKR
Take B1: the binding entry was “binds”.
